# From patent publication US5439885A, “CRF analogs” (The Salk Institute for Biological Studies, priority 1993, dated 1995)
# Part of at least one peptide drawing is inferred or uncertain, most often the ends. Some compounds share one wording; it may come from a single statement. Where no end group is shown, it is not given here.
# Assays:
# [1] = biopotency of CRF analog (test not specified)
# [2] = lowering of blood pressure when injected peripherally; assay type: in vivo, mammals; settings: e.g. intravenously
# [3] = tested on: secretion of ACTH and β-END-LI; assay: in vivo stimulation of the secretion of ACTH and β-END-LI
# Experimental: The synthetic CRF agonist peptides [Ala^20 ]-oCRF and [Ala^39 ]-oCRF are examined for their effects on the secretion of ACTH and β-endorphin in vitro and also in vivo. The potency of synthetic oCRF analogs to stimulate the secretion of ACTH and β-endorphin by cultured rat pituitary cells is measured using the procedure as generally set forth in Endocrinology, 91, 562 (1972) and compared against synthetic oCRF. [Ala^20 ]-oCRF is considered to be about 2 to 4 times as potent as the native hormone. […] In vivo testing which can be carried out using the general procedure set forth in C.
Substance,biopotency [1],lowering of blood pressure [2],stimulation of the secretion of ACTH and β-END-LI [3]
SEEPPISLDLTFHLLREVLEMARAEQLAQQAHSNRKLMAII-NH2 [VI],biopotent,significant lowering of blood pressure,stimulates the secretion of ACTH and β-END-LI
SEEPPISLDLTFHLLREVLAMARAEQLAQQAHSNRKLMEII-NH2 [V],biopotent,significant lowering of blood pressure,stimulates the secretion of ACTH and β-END-LI
SQEPPISLDLTFHLLREVLEMTKADQLAQQAHSNRKLLAIA-NH2 [II],–,significant lowering of blood pressure,biopotency to stimulate the secretion of ACTH and β-END-LI
SQEPPISLDLTFHLLREVLAMTKADQLAQQAHSNRKLLAIA-NH2 [III],biopotent,lowers blood pressure,–
SQEPPISLDLTFHLLREVLAMTKADQLAQQAHSNRKLLDIA-NH2 [Example I],–,significant lowering of blood pressure,biopotency to stimulate the secretion of ACTH and β-END-LI
